This is one part of the list.

For the experiment, the target named is T1, OsSMF1 (Oryza sativa, UniProt Q6ZLB0 1-436).
T1 sequence: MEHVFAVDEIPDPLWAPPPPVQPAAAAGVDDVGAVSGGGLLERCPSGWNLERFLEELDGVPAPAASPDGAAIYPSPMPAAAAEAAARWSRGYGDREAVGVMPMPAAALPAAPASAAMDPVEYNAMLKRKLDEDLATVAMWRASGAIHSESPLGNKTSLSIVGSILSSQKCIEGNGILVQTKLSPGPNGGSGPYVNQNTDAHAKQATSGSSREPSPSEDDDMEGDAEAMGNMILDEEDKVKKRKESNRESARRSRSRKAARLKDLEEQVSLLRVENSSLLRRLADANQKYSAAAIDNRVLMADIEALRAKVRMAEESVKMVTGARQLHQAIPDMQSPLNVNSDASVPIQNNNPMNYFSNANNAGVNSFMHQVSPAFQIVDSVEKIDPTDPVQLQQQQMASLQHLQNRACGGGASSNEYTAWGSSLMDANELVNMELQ
The experiment can be described thus: protein-binding microarray (RPBM); PBS, 2% BSA, 51.3 ng/ul salmon testes DNA, 50 uM zinc acetate, 200 nM TF, 25 C, 1 h; high values mean tight binding. As to conditions: protein: recombinant; tags: N-terminal polyhistidine and DsRed monomer fusion (pET32a); chain copies: 2; label: CyDye5-dUTP incorporated in the synthesized complementary strand; 3' TTTTT single-stranded linker to array surface; dsDNA, one strand shown. The procedure, abridged:
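An Axon 4000B scanner gave the binding signal as per-feature fluorescence intensity in arbitrary units. This followed washing of a custom Agilent array that had been incubated for 1 h at 25 °C with 200 nM protein in PBS, 2% BSA, salmon testes DNA and 50 µM zinc acetate. The proteins were transcription factors fused at the N-terminus to polyhistidine and DsRed, expressed in E. coli BL21-CodonPlus and purified on Ni–NTA.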
For “TTCTAAGTTGGGGATGTGTTGTATCCGATTTTACGGTCCACGGAGTCACCTAGTGCAG”, the binding signal was 4150 fluorescence intensity (a.u.). The value for “AAACAAAAGTGACATGTCTCCATAAGGTTATCAACTTGTTCGGAGTCACCTAGTGCAG” was 4390 fluorescence intensity (a.u.).

For “CTTCCCACCCATGGTGGGAATGTGTGATGGCACCTGGTGACGGAGTCACCTAGTGCAG”, the binding signal was 4290 fluorescence intensity (a.u.). The result for “TTTGTTGATTAGCTGATCTGGCTAGCTAGTTGAAATTGAACGGAGTCACCTAGTGCAG” reads 3480 fluorescence intensity (a.u.); that for “ACGCACAGAGCCACGCTACTCTCCCCACCCAGATTCCACCCGGAGTCACCTAGTGCAG”, 3320 fluorescence intensity (a.u.). The result for “GGTCCATCCCAGCCGTCGGATCCCCAGGCGGTGGCAGGGGCGGAGTCACCTAGTGCAG” reads 19400 fluorescence intensity (a.u.); that for “GGTGGGGCCCTGTAGCGAGCAAGCCAAATGGGAGAACACCCGGAGTCACCTAGTGCAG”, 3390 fluorescence intensity (a.u.).

For “GATTACATGTAGACTATTTATCTACGTGGACAAAATCTCTCGGAGTCACCTAGTGCAG”, the binding signal was 13100 fluorescence intensity (a.u.). As for “AAATTGGCAGCCAAACTGGTGAGAAAATAGCCTGGAATTGCGGAGTCACCTAGTGCAG”, the binding signal is 18900 fluorescence intensity (a.u.). The result for “TGTTGCTCTGCTTGGCCCACTAATGAACTTGTATGGGCCCCGGAGTCACCTAGTGCAG” reads 5960 fluorescence intensity (a.u.); that for “CAAAGGCGCCGCCTCGTGCACCAGCTCATCCATTCCCACTCGGAGTCACCTAGTGCAG”, 4440 fluorescence intensity (a.u.). The result for “CAAGAACCCAACCGCCAATGATCACACGCCACGTCGCCCCCGGAGTCACCTAGTGCAG” reads 10200 fluorescence intensity (a.u.); that for “CATCGCCGACGACAAGTACCCATCCTTGCCACCGTCGCCGCGGAGTCACCTAGTGCAG”, 3860 fluorescence intensity (a.u.).

As to “GCACGGCTGGGCGACGGCTGGTGTGACGCTGCGGAGTTCGCGGAGTCACCTAGTGCAG”, the binding signal is 4820 fluorescence intensity (a.u.). The value for “GGCGCGCAGGTGGGACGATGTGGCACCGCGCGCTTGCTTCCGGAGTCACCTAGTGCAG” was 4170 fluorescence intensity (a.u.); that for “ACAGCAAGGCGTGCGTGGCATCATACCCATGCGTGGTGCACGGAGTCACCTAGTGCAG” was 9650 fluorescence intensity (a.u.).

“ACGGCCCCACCGCCGCCGCATCATCCACCGTCCGTTCCCGCGGAGTCACCTAGTGCAG”: the binding signal is 4640 fluorescence intensity (a.u.). For “ACCCCTAAAGCGCAAGACATGTCATCCATGAGTCATAGTGCGGAGTCACCTAGTGCAG”, the binding signal was 13400 fluorescence intensity (a.u.).

Consider “CTGCCGCGCCATCGCGCCACGTCGCCTCGTCTTGCCTCGCCGGAGTCACCTAGTGCAG”, for which the binding signal is 12000 fluorescence intensity (a.u.). The value for “TAGGCTGGCCACTGGCTGGGCCTTTGAGCTTGGTCAGCTGCGGAGTCACCTAGTGCAG” was 3160 fluorescence intensity (a.u.).

Take “TTGCTTCATAGGGAATTAGGGATTGACCAAAGTCGAACTCCGGAGTCACCTAGTGCAG”: the binding signal was 3560 fluorescence intensity (a.u.). The result for “CCTTCCGCCACGACGCCGTCGTGTGCTCCGTCGTCCAGGCCGGAGTCACCTAGTGCAG” reads 4750 fluorescence intensity (a.u.). The result for “AGAGGGTGGAGGAGCTGACTAGATTGCACTAGGTCTCGATCGGAGTCACCTAGTGCAG” reads 42000 fluorescence intensity (a.u.); that for “CCACTGCTACGCCGGCAATGGCCGCCCGCCACTGACGTGCCGGAGTCACCTAGTGCAG”, 3670 fluorescence intensity (a.u.). The value for “AAACCCCACGCCACCCACCACCTTCAACGTTAGACCCACGCGGAGTCACCTAGTGCAG” was 3220 fluorescence intensity (a.u.). As to “CTTAAAGGGCAGAAAAGACATACGTTTCCTTTAACCAAACCGGAGTCACCTAGTGCAG”, the binding signal was 3210 fluorescence intensity (a.u.). Regarding “GTGATAGTTTTGTTCTGCCACGCCAGCTAGAGTGGCGTGGCGGAGTCACCTAGTGCAG”, the binding signal is 7410 fluorescence intensity (a.u.).

On to “CAAGCGCGACGTCCCAACGGGCGAAGCGCGGCAGCCGTCTCGGAGTCACCTAGTGCAG”, for which the binding signal was 32900 fluorescence intensity (a.u.).

For the sequence “GCAGCCGGACCGTCACGTTGCTTGCGCTGTTGGCTGTTGCCGGAGTCACCTAGTGCAG”, the binding signal was 3220 fluorescence intensity (a.u.). The result for “GCCCCTAGAGTTGAGATGCAGAATGCCGTGCTAGGGTTGTCGGAGTCACCTAGTGCAG” reads 3980 fluorescence intensity (a.u.); that for “CCGCGGCCACCTGGCCTACCTCGCCTCTCCCGTGGGCCCCCGGAGTCACCTAGTGCAG”, 3240 fluorescence intensity (a.u.).

As for “TGACTACGGATGCAAGCGGGCCAACCCGCGGGTCTGTTTACGGAGTCACCTAGTGCAG”, the binding signal was 20300 fluorescence intensity (a.u.). The value for “CATATAAAAGCCCGTGCAATGCACGGGCTGATGACTAGTACGGAGTCACCTAGTGCAG” was 3510 fluorescence intensity (a.u.).

For “TAGATTAGCTTATCAATGATTTGTTGCAAAATATCACACGCGGAGTCACCTAGTGCAG”, the binding signal was 21100 fluorescence intensity (a.u.).

With “AGGCGCTCCATAGGCCTCGTCATCTTCACAGTCACACACCCGGAGTCACCTAGTGCAG”, the binding signal is 7450 fluorescence intensity (a.u.).

In the case of “CTTGGCCGTGGCCGCTGACATGGCATCACCTCATCCGCAACGGAGTCACCTAGTGCAG”, the binding signal was 4320 fluorescence intensity (a.u.). For the sequence “TGCTGTTGGGTTGTGAACTAAACTTAAAGTGCATGTTTATCGGAGTCACCTAGTGCAG”, the binding signal was 3570 fluorescence intensity (a.u.). The value for “GTAAGTTTTCCACTCATACTTACTGGTTCTACTTGATCTTCGGAGTCACCTAGTGCAG” was 3230 fluorescence intensity (a.u.). The result for “AGTTATTTCCTAATTGTATTTCTATATGGACTCTAGCCTCCGGAGTCACCTAGTGCAG” reads 23500 fluorescence intensity (a.u.); that for “AATTTTATCTCTGGTCTTCTATGGACCAAAAGTGACGTGGCGGAGTCACCTAGTGCAG”, 16700 fluorescence intensity (a.u.); that for “GAGAGGAGGAAGGGAGAGTAACGTGGCGTCCTGACATGTGCGGAGTCACCTAGTGCAG”, 6930 fluorescence intensity (a.u.). The result for “TTACTTTCCAGTCCAATTTCCAAGCTACCACGGTATTTATCGGAGTCACCTAGTGCAG” reads 7880 fluorescence intensity (a.u.).

(Values after PMC7819943, “Rice protein-binding microarrays: a tool to detect cis-acting elements near promoter regions in rice”.)
